# Results of single-concentration screens

Each number is a percent effect as filed.
The controls that fix the scale are not given in the record; negative values are as filed.
The compounds are a random part of those screened.
Two or more numbers in one place are separate tests of the same structure; such repeats can differ widely.

A: 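Whole-cell growth test on Mycobacterium tuberculosis, read after 4 days in a medium based on cholesterol and the lipid DPPC; the read-out is not stated. Tested at 50 µM. The record gives no direction; compounds that gave an IC50 in retests scored well above the rest, so higher reads as more growth inhibition. Of about 69,000 compounds tested this way, about 370 (0.54%) reached 50% or more in at least one test.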
B: 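Whole-cell growth test on Mycobacterium tuberculosis, read after 3 days in glucose-containing 7H9 medium; the read-out is not stated. Tested at 50 µM. The record gives no direction; compounds that gave an IC50 in retests scored well above the rest, so higher reads as more growth inhibition. Size under these conditions: about 69,000 compounds, about 760 of them at 50% or above in at least one test.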

| # | structure | A | B |
|---|---|---|---|
| 1 | `COc1ccc(CN2Cc3cn(C)nc3C(COCC3CC3)C2)cc1` (stereo not shown) | -6.368% | 13.22% |
| 2 | `CC(C)c1noc(C[S+]([O-])CC(=O)Nc2ccc(F)c(F)c2)n1` (stereo not shown) | -25.89% | -10.2% |
| 3 | `Cn1cc(-c2nc(C3CCN(CC4CC4)CC3)cc3c2ncn3C)cn1` | 8.687% | -8.53% & -2.995% |
| 4 | `COc1cccc(CN2CCCCC2Cn2nc(C)nc2C)c1` (stereo not shown) | -24.86% | -19.43% |
| 5 | `Cn1cnc2ccc(NC(=O)CC3CCN(C4CCCCC4)CC3)cc21` | -8.058% & -3.496% | -1.035% |
| 6 | `CN1CCN(C(=O)c2n[nH]c3c2CN(C2CCOC2)CC3)CC1` (stereo not shown) | -0.4736% | -2.528% |
| 7 | `O=C(c1cnccn1)N1CCC2(CC1)CC(Oc1ccccc1)CO2` (stereo not shown) | -13.87% | -4.254% |
| 8 | `COc1ccccc1-c1cc(C(=O)N(C)C)nc2c1cnn2C` | -13.42% | 10.63% |
| 9 | `CN(CCc1ccc2c(c1)CCO2)CC1CCS(=O)(=O)C1` (stereo not shown) | -2.661% | 5.146% |
| 10 | `CNC(=O)C1(c2cnccn2)CCCN1C(=O)c1cccnc1OC` (stereo not shown) | 22.03% | 32.91% |
| 11 | `COc1ccccc1C(=O)NCCC(=O)Nc1c(C)nn(C)c1C` | -0.4564% | 0.231% |
| 12 | `COC(=O)c1ccc(S(=O)(=O)NCc2cccnc2N(C)C)cc1` | -9.322% | -4.76% |
| 13 | `CCc1cc(=O)[nH]c(NC2CCN(S(=O)(=O)c3ccccc3)CC2)n1` | -0.918% & 15.13% | -5.7% |
| 14 | `O=C(NCc1ccoc1)c1ccc(C2CCCN2CC2CCOCC2)s1` (stereo not shown) | 7.563% | -30.41% |
| 15 | `CN(C)Cc1cc(-c2nccn2CCn2cccn2)ccc1O` | -2.494% | -27.61% |
| 16 | `Cc1cnc(CN(C)C2CCN(CC(=O)Nc3c(C)n[nH]c3C)C2)o1` (stereo not shown) | -18.76% | -37.95% |
| 17 | `Cc1ncc(C(=O)NCCNc2ncccn2)s1` | -33.58% | -26.05% |
| 18 | `COc1ccc(CC(=O)Nc2c(C)nc(N3CCOCC3)nc2C)cc1` | 9.492% | -0.9237% & 35.1% |
| 19 | `O=C(N1CCN(CCO)CC1)C1(O)Cc2ccccc2C1` | 13.18% | 6.685% |
| 20 | `Cc1ccc(C(CNCc2cccn2C)N2CCOCC2)s1` (stereo not shown) | 11.27% | 7.046% & 10.22% |
| 21 | `CC1(c2ccccc2)CCCN(Cc2cncn2C2CC2)C1` (stereo not shown) | 29.33% | 30.22% |
| 22 | `COC(=O)COn1c(SC(C)C)nc2ccccc2c1=O` | 44.54% | 82.4% |
| 23 | `CN(CC(=O)N1CCCCC1Cn1cccn1)Cc1ccccc1` (stereo not shown) | -23.34% | -28.17% |
| 24 | `CC(C)(C)C(=O)NCC(=O)NCCc1nc(C(F)(F)F)cs1` | 0.4447% | -11.85% |
| 25 | `CC(CNC(=O)CCCn1cncn1)N1CCc2ccccc2C1` (stereo not shown) | 6.609% | -46.83% |
| 26 | `CCCN(CCC)C(=O)c1sc(C)nc1C` | 1.372% | 6.693% |
| 27 | `Cc1ccc(C(=O)NCC(O)CN2CCCC2=O)cc1Cl` (stereo not shown) | -11.47% | -0.3259% & -8.699% |
| 28 | `O=C(COCC1CC1)Nc1cc(S(=O)(=O)NC2CC2)ccc1F` | 14.2% | 26.26% & 38.71% |
| 29 | `OCCN1CCC(c2csc(Nc3cnccn3)n2)CC1` | -4.01% & -0.5417% | -14.48% |
| 30 | `O=C(NCCc1ccc(F)cc1)NCC(O)c1cccc(F)c1` (stereo not shown) | -56.11% | 21.44% |
| 31 | `CC1(C)CC(N(Cc2ccccc2)Cc2ncc[nH]2)CC(C)(C)N1.O=C(O)CC(O)(CC(=O)O)C(=O)O` | -21.28% & -1.314% | -6.405% |
| 32 | `CC(C(=O)NCc1ccnc(N2CCN(C)CC2)c1)n1cccn1` (stereo not shown) | 2.332% | -3.342% |
| 33 | `CC(=O)Nc1cc(C(=O)Nc2cc(CC(C)(C)C)nn2C)ccc1F` | 1.419% | -1.849% |
| 34 | `O=C(c1ccncc1)N1CCC2(CC1)CCN(C(=O)c1cccnc1)C2` | 8.212% | 27.83% |
| 35 | `CCn1nc(C)c(CN(CCCN(C)C)Cc2ccccn2)c1C` | -19.88% | 10.59% |
| 36 | `CC(NC(=O)NCc1cccc(N2CCCC2=O)c1)c1ccccc1` (stereo not shown) | -27.49% | -5.486% |
| 37 | `COc1ccc(-c2n[nH]cc2CN(C)CCC2CCOCC2)cc1F` | 5.785% | 14.43% & -3.095% |
| 38 | `CCn1c(C2CCCN(S(=O)(=O)C3CC3)C2)nn(CCN(C)C)c1=O` (stereo not shown) | -18.98% & -0.0241% | -17.87% |
| 39 | `CC(=O)Nc1cc(F)c(S(=O)(=O)N(C)CC2CCC2)c(F)c1` | 13.78% | 23.86% |
| 40 | `Cc1nn(CC(=O)N2CCCCC2Cn2cccn2)c(C)c1Cl` (stereo not shown) | -6.051% & -17.28% | -9.457% |
| 41 | `CC(NC(=O)NCCCN(C)S(C)(=O)=O)c1ccncc1` (stereo not shown) | -10.12% | -9.618% |
| 42 | `Cc1nn(C)cc1S(=O)(=O)N[C@@H]1CCC[C@@H](N2CCCC2)[C@@H]1O` | 2.15% & -4.843% | 0.1863% |
| 43 | `O=C1CCC2(CCCN(C(=O)Cc3ccccc3)C2)N1` (stereo not shown) | -2.874% | -5.346% |
| 44 | `O=C(c1cnnn1-c1ccccc1)N1CCCC(c2ccn[nH]2)C1` (stereo not shown) | -8.329% | -15.56% |
| 45 | `O=c1n(Cc2ccc(F)cc2)nc2ncccn12` | -11.13% | 2.426% |
| 46 | `CCc1nnc(CN(C)C2CCCN(Cc3noc(C4CC4)n3)C2)o1` (stereo not shown) | -36.33% | -10.59% |
| 47 | `CN(CCCc1ccccc1)Cc1nc2c(cnn2C)c(=O)[nH]1` | -1.538% | -3.523% |
| 48 | `O=c1c(NCCO)c(N2CCN(c3ccccc3)CC2)c1=O` | 12.49% | 33.09% |
| 49 | `Cc1nc2[nH]cnc(NCCN3CCOCC3)c-2n1` | 4.264% | 13.03% |
| 50 | `O=C(CCc1ccsc1)NCC1CCN(c2ccccc2)C1` (stereo not shown) | -15.03% | 0.8086% & 5.981% |
| 51 | `O=C(O)C(F)(F)F.[H][C@@]12CCN(CCc3ccccc3)C[C@]1([H])O[C@@H](C(=O)NC)C2` | -6.489% & -12.41% | -11.11% |
| 52 | `Cn1cnc(CNC(=O)c2ccccc2-n2cc(CN)cn2)c1` | -9.744% | -2.112% |
| 53 | `O=C(c1cc[nH]n1)N1CCC(c2cc(Nc3ccccn3)n[nH]2)CC1` | 4.022% | 0.9971% |
| 54 | `[H][C@]12CC[C@]([H])(CN(Cc3cccnc3)C1)N(C(=O)OC(C)C)C2` | -0.5234% | 10.49% |
| 55 | `NC(=O)Cc1csc(NC(=O)C2CSCCC(=O)N2)n1` (stereo not shown) | 12.04% | 2.295% & 39.55% |
| 56 | `CC1CCCN(C(=O)CNC(=O)c2ccoc2)C1` (stereo not shown) | -64.98% | -71.71% |
| 57 | `CCOCC1CN(Cc2ccoc2)Cc2ncn(CC3CC3)c21` (stereo not shown) | -7.151% & -12.28% | -2.127% |
| 58 | `CCN(Cc1ccc2c(c1)OCO2)C(=O)NC(C)Cn1ccnc1` (stereo not shown) | -7.944% | -10.37% |
| 59 | `COc1ccc(F)c(F)c1CN1CC(=O)N(c2ccccc2C)CC1C` (stereo not shown) | -6.41% | 29.75% |
| 60 | `CCn1cc(CN2CCCC2c2nc(C(C)C)no2)cc1C#N` (stereo not shown) | -29.68% | -50.63% & -6.07% |
| 61 | `Fc1cccc(NCc2ncc[nH]2)c1` | 9% & 3.677% | 10.27% & 6.035% |
| 62 | `CCOCC(=O)NC(C)Cc1ccccc1Br` (stereo not shown) | 44.71% | 62.76% |
| 63 | `CCC(CC)NC(=O)NCc1ccnc(-n2ccnc2C)c1` | 4.587% & -4.121% | -33.11% |
| 64 | `Cc1ncsc1C(=O)NCCNC(=O)Cc1cccc(F)c1` | -1.215% | -8.421% & -25.81% |
| 65 | `Cc1cc2cc(C(=O)N[C@@H]3CC[C@@H](N4CCNC(=O)C4)[C@@H]3O)ccc2o1` | 3.336% | 19.42% |
| 66 | `Cc1csc(CN(C)S(=O)(=O)c2ccc(C)c(N(C)C)c2)n1` | -7.128% | 4.129% & 19.41% |
| 67 | `Cc1cccc2[nH]c(C3CCCN(Cc4ccccc4C(=O)O)C3)nc12` (stereo not shown) | -35.47% | -5.7% & -7.84% |
| 68 | `Cc1cc(C)c(N(CC(O)CNCc2ccco2)S(C)(=O)=O)c(C)c1.O=C(O)c1ccccc1` (stereo not shown) | -3.066% | 7.208% |
| 69 | `CC1(C)CN(C(CNS(C)(=O)=O)c2ccc(Cl)cc2)CCO1` (stereo not shown) | -14.25% | -16.79% |

Some entries from above, unchanged:

structure,A,B
COc1ccccc1C(=O)NCCC(=O)Nc1c(C)nn(C)c1C,-0.4564%,0.231%
CN(C)Cc1cc(-c2nccn2CCn2cccn2)ccc1O,-2.494%,-27.61%
CCn1nc(C)c(CN(CCCN(C)C)Cc2ccccn2)c1C,-19.88%,10.59%
CCn1c(C2CCCN(S(=O)(=O)C3CC3)C2)nn(CCN(C)C)c1=O (stereo not shown),-18.98% & -0.0241%,-17.87%
O=c1c(NCCO)c(N2CCN(c3ccccc3)CC2)c1=O,12.49%,33.09%
CC(CNC(=O)CCCn1cncn1)N1CCc2ccccc2C1 (stereo not shown),6.609%,-46.83%
Cn1cnc2ccc(NC(=O)CC3CCN(C4CCCCC4)CC3)cc21,-8.058% & -3.496%,-1.035%
CCn1cc(CN2CCCC2c2nc(C(C)C)no2)cc1C#N (stereo not shown),-29.68%,-50.63% & -6.07%

From ChEMBL document CHEMBL3988442, “University of Dundee, Small-Polar-MMV Screening Library” (2021).